Results on two molecules are retold here after doi:10.1101/2023.05.10.540045.

Sequences of proteins named here, by UniProt entry; tags and fusion partners are left off.
UniProt Q8WWM9: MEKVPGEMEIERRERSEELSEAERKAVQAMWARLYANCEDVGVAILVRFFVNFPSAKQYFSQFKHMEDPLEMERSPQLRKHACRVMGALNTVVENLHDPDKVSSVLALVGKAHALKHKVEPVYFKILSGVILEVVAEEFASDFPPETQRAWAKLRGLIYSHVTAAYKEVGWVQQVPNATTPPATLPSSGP

Assay [1] has as its target human cytoglobin (hCYGB), stably expressed in HEK293 (human) (UniProt Q8WWM9). Nature of the assay: proximity ligation.
Assay [2] addresses cytoglobin, endogenous in human temporal arteries (human (endogenous in temporal artery)) (UniProt Q8WWM9). The assay is described as follows: proximity ligation.

Results are given in words; binding and its absence hold for the method and conditions named. Binding seen in cells or lysates may run through a third protein. Some entries that bind do so weakly or less than the wild type.

B1: High Mobility Group Box 2 (HMGB2), endogenous in HEK293 (protein, UniProt P26583 1-209)
chain: MGKGDPNKPRGKMSSYAFFVQTCREEHKKKHPDSSVNFAEFSKKCSERWKTMSAKEKSKFEDMAKSDKARYDREMKNYVPPKGDKKGKKKDPNAPKRPPSAFFLFCSEHRPKIKSEHPGLSIGDTAKKLGEMWSEQSAKDKQPYEQKAAKLKEKYEKDIAAYRAKGKSEAGKKGPGRPTGSKKKNEPEDEEEEEEEEDEDEEEEDEDEE
Turning to B1, in assay [1], the binding result was “binds”.

B2: High Mobility Group Box 2 (HMGB2), endogenous in human temporal arteries (protein, UniProt P26583 1-209)
chain: B1 chain
Consider B2, for which the binding entry in assay [2] is “binds”.
